Among the data in the odorant receptor screen of Mainland et al. (2015) are odorant receptor activation values, retold here.

Common to all, as to assay: odorant receptor activation (CRE luciferase / Renilla) (fold of no-odor wells); higher = more activation
Conditions in all cases: 100 µM

Experiment [1] has as its system OR52N4 T106I/L167R/N218I clone 1127.
Experiment [2] relates to OR52N5 clone 1238.
Experiment [3] concerns OR52P1 clone 1221.
Experiment [4] relates to OR52R1 I129T/N201Y/S245A clone 1705.
In experiment [5] the test system is OR52W1 clone 1234.
In experiment [6] the test system is OR56A1 clone 1114.
In experiment [7] the test system is OR56A3 M51T clone 1128.
The subject of experiment [8] is OR56A4 clone 1724.
The subject of experiment [9] is OR56A5 clone 1708.
Experiment [10] relates to OR56B1 C106R clone 1168.
Experiment [11] relates to OR56B4 P277S clone 1224.
The test system of experiment [12] is OR5A1 I52V clone 1131.
The subject of experiment [13] is OR5A1 clone 1130.
Experiment [14] concerns OR5A1 clone 1507.
Experiment [15] concerns OR5A2 clone 1132.
In experiment [16] the test system is OR5AC2 M200I clone 1490.
Experiment [17] deals with OR5AK2 M92I clone 1335.
Experiment [18] relates to OR5AK2 clone 1438.
Experiment [19] concerns OR5AK3 clone 1336.
Experiment [20] has as its system OR5AL1 clone 1362.

The list shows a part of the results. Each value is one well over the wells without odorant, computed here; the data are noisy.

`CCCCCCCCOC(C)=O` [octyl acetate]: the odorant receptor activation was 0.965 in experiment [1]; 0.848 in experiment [2]; 1.02 in experiment [3]; 1.15 in experiment [4]; 0.754 in experiment [5]; 0.876 in experiment [6]. Further, the odorant receptor activation was 1.26 in [7]; 0.653 in experiment [8]; 1.2 in experiment [9]; 0.891 in [10]; 0.899 in experiment [11]; 0.794 in experiment [12]. In addition, the odorant receptor activation in experiment [13] turned out to be 0.903; in [14], 1.12; in [15] it was 0.819; in experiment [16], 1.04; in experiment [17] it was 1.11; in experiment [18], 1.21. Besides, the results for the odorant receptor activation in experiment [19] and in [20] were 0.891 and 1.43, respectively.
On to `c1ccc(Oc2ccccc2)cc1` [diphenyl ether], for which the odorant receptor activation in [1] turned out to be 1.02; in [2] it was 0.987; in experiment [3], 1.02; in [4], 0.743; in experiment [5] it was 1.07; in experiment [6], 0.778. The odorant receptor activation in experiment [7] was 1.13; in [8], 0.606; in [9] it was 0.921; in experiment [10] it was 0.701; in experiment [11], 0.968; in [12] it was 1.14. Further, the odorant receptor activation stood at 1.1 in [13]; 1.13 in [14]; 1.09 in experiment [15]; 1.2 in experiment [16]; 1.09 in experiment [17]; 1.12 in experiment [18]. The results for the odorant receptor activation in experiment [19] and in experiment [20] were 0.949 and 0.891, respectively.
As for `CCCCO` [1-butanol], the odorant receptor activation in experiment [1] came to 0.797; in experiment [2] it was 0.65; in experiment [3], 0.963; in experiment [4], 1.23; in [5] it was 0.795; in experiment [6], 16.5. Moreover, the odorant receptor activation was 1.88 in experiment [7]; 0.978 in [8]; 1.07 in [9]; 0.944 in experiment [10]; 0.925 in experiment [11]; 0.765 in experiment [12]. For the same molecule, the odorant receptor activation in experiment [13] amounted to 1.38; in [14], 1.17; in experiment [15], 1.25; in [16], 1.04; in [17] it was 0.803; in [18], 1.44. The odorant receptor activation was determined as 0.943 in experiment [19] and 1.34 in experiment [20].
As to `COc1cc(C)ccc1O` [2-methoxy-4-methylphenol], the odorant receptor activation in experiment [1] turned out to be 0.959; in experiment [2] it was 0.738; in [3], 1.15; in experiment [4], 1.05; in experiment [5] it was 0.993; in [6], 9.51. Further, the odorant receptor activation in experiment [7] amounted to 1.03; in [8], 0.868; in experiment [9], 1.06; in experiment [10], 0.846; in [11], 1.15; in [12], 1.14. For the same molecule, the odorant receptor activation in [13] amounted to 1.79; in experiment [14], 0.725; in experiment [15], 1.26; in [16] it was 0.856; in experiment [17] it was 0.982; in experiment [18], 1.4. In addition, the odorant receptor activation in [19] worked out at 0.886; in [20], 1.51.
In the case of `O=C1CCCCCCCCCCCC(=O)OCCO1` [ethylene brassylate], the odorant receptor activation in experiment [1] worked out at 0.74; in [2], 1.76; in [3] it was 1.72; in experiment [4], 1.59; in experiment [5], 1.11; in [6], 1.19. In addition, the odorant receptor activation was determined as 2.01 in experiment [7]; 1.48 in [8]; 1.24 in experiment [9]; 1.87 in [10]; 1.68 in [11]; 1.39 in experiment [12]. Also, the odorant receptor activation in experiment [13] is 1.71; in experiment [14], 1.12; in experiment [15], 1.86; in experiment [16], 1.22; in experiment [17], 1.46; in [18] it was 1.97. The results for the odorant receptor activation in experiment [19] and in [20] were 1.33 and 1.34, respectively.
For `CCC1(O)C2(C)CCC(C2)C1(C)C` (stereo not given) [2-ethylfenchol], the odorant receptor activation worked out at 0.737 in experiment [1]; 0.714 in experiment [2]; 1.2 in experiment [3]; 1.06 in experiment [4]; 0.928 in [5]; 20.1 in experiment [6]. Also, the odorant receptor activation in experiment [7] turned out to be 1.73; in [8], 0.858; in experiment [9], 1.19; in experiment [10], 0.49; in [11] it was 1.15; in experiment [12], 0.926. In addition, the odorant receptor activation in [13] was 1.56; in [14], 1.02; in experiment [15], 1.32; in experiment [16], 1.01; in experiment [17], 0.865; in [18], 1.13. Moreover, the odorant receptor activation in [19] stood at 1.03; in experiment [20], 0.968.
Turning to `O=C1CCCCCCCCCCCCCCO1` [pentadecalactone], the odorant receptor activation was 1.01 in experiment [1]; 0.831 in experiment [2]; 0.705 in [3]; 1.24 in experiment [4]; 0.989 in experiment [5]; 1.31 in experiment [6]. The odorant receptor activation is 1.01 in experiment [7]; 0.587 in experiment [8]; 1.05 in experiment [9]; 0.842 in experiment [10]; 0.774 in experiment [11]; 0.78 in experiment [12]. The odorant receptor activation in experiment [13] was determined as 1.15; in experiment [14] it was 0.816; in experiment [15], 0.852; in [16], 1.22; in experiment [17], 0.807; in [18], 1.2. Moreover, the figures for the odorant receptor activation in [19] and in experiment [20] were 0.888 and 0.956, respectively.
